Among the data in US6593337B1, “Tricyclic compounds useful as HIV reverse transcriptase inhibitors” (Bristol-Myers Squibb Pharma Company, priority 1999, dated 2003) are IC90 values, retold here.

The test system of this assay is HIV-1 (RF). The experiment in a line: HIV RNA assay: microplate based compound evaluation in HIV-1 infected MT-2 cells (IC90). Conditions: Human immunodeficiency virus 1, MT2, 72 h; HIV-1 (RF) in MT-2 cells, 3 days; virus dilutions selected to give this value; read-out: IC90 (concentration of compound required to reduce the HIV RNA level by 90%). It is filed as cell-based. The protocol: Plasmid pDAB 72 containing both gag and pol sequences of BH10 (bp 113-1816) cloned into PTZ 19R was prepared according to Erickson-Viitanen et al. AIDS Research and Human Retroviruses 1989, 5, 577. The plasmid was linearized with Bam HI prior to the generation of in vitro RNA transcripts using the Riboprobe Gemini system II kit (Promega) with T7 RNA polymerase. Synthesized RNA was purified by treatment with RNase free DNAse (Promega), phenol-chloroform extraction, and ethanol precipitation. RNA transcripts were dissolved in water, and stored at −70° C. The concentration of RNA was determined from the A260.
Biotinylated capture probes were purified by HPLC after synthesis on an Applied Biosystems (Foster City, Calif.) DNA synthesizer by addition of biotin to the 5′ terminal end of the oligonucleotide, using the biotin-phosphoramidite reagent of Cocuzza, Tet. Lett. 1989, 30, 6287. […]
MT-2 and MT-4 cells were maintained in RPMI 1640 supplemented with 5% fetal calf serum (FCS) for MT-2 cells or 10% FCS for MT-4 cells, 2 mM L-glutamine and 50 μg/mL gentamycin, all from Gibco. […] Infectious titers of HIV-1(RF) stocks were 1-3×10^7 PFU (plaque forming units)/mL as measured by plaque assay on MT-2 cells (see below). […]

Converted amounts (≈) assume the structure as drawn.

On to `Nc1ccn([C@H]2CC[C@@H](CO)O2)c(=O)n1` [ddC, 2′,3′-dideoxycytidine], for which the IC90 was 0.2 µg/mL (≈ 0.947 µM).
